# Test results reported in patent publication US6469013B2, “Therapeutic compounds” (Parker Hughes Institute, priority 1998, dated 2002).
# At least one structure is not confirmed: it was looked up by name or label, or the drawing left a doubt.
# Tests used:
# [1] = test system: SQ20B squamous carcinoma cells; experiment: Apoptotic DNA fragmentation gel assay; type: cell-based; conditions: JAK3 negative cells, 1 or 3 μM, 24 hours
# C57BL/6 splenocytes [2] = experiment: ConA-induced splenocyte proliferation (WST-1); type: cell-based, mouse; conditions: 0.1, 1, 10 and 50 μg/ml, 3-day-culture
# C57BL/6 recipients = experiment: Allogeneic islet transplantation (BALB/c islets); type: in vivo, mouse; conditions: 50 mg/kg, 14 days post transplantation
# Description: Islets were hand-picked 3-4 times under the dissecting scope before islets were free of exocrine tissue, vessels, lymph nodes and ducts and ready for transplantation.
# Four hundred islets were placed in Hamilton syringe and transplanted under the left kidney capsule of each diabetic recipient mouse. Recipients were rendered diabetic with a single i.p. dose of streptozotocin (200 mg/kg; Sigma, St. Louis, Mo.) 1 wk before transplantation. Blood glucose level was measured by One Touch Profile glucose monitor system (Lifescan, Milpitas, Calif.). […] Allograft function was monitored by serial blood glucose measurements. […] All injections were given i.p.
# Kidneys bearing grafts were removed, fixed in 10% formalin and embedded in paraffin. Serial sections of graft area were cut and stained with hematoxylin and eosin. For insulin staining, sections were stained by immunoperoxidase method using 1:100 dilution of polyclonal guinea pig anti-insulin antibody (Gpx Insulin, Dako, Carpinteria, Calif.) and 1:100 dilution of secondary antibody conjugated to horse radish peroxidase (Guinea Pig Immunoglobulins HRP, Dako, Carpinteria, Calif.). Sections were briefly counterstained with hematoxylin and mounted for light microscopic examination.
# NALM-6 leukemia cells = experiment: Apoptotic DNA fragmentation gel assay; type: cell-based, human; conditions: 1 μM or 3 μM, 24 hours
# skh-1 mice [3] = experiment: Acute UVB skin inflammation: skinfold thickness, morphology, histology; type: in vivo, mouse
# Excerpt: A bank of 8-FSX24T12/HO/UVB lamps (National Biological Corporation, Twinsburg, Ohio) that emits light predominantly in the UVB range, 280-320 nm was used to irradiate mice and cell cultures. The irradiance of UVB lamps was always measured before irradiation using a UVB meter (model—500C obtained from National Biological Corporation, Twinsburg, Ohio). The dose of UVB light used to irradiate cultures was 25 mj/cm^2. Anesthetized mice received UVB radiations to a 2.0 cm^2 area on their dorsal surface. This area was painted either with the test compound (1.5 mg/cm^2) in drug receiving mice, or with vehicle in control mice fifteen minutes before irradiation. The distance between UVB lamps and surface receiving irradiation was 20 cm. The final radiation dose received by skh-1 hairless mice was 250 mj/cm^2 which is approximately seven times higher than the minimal erythema dose (MED) (17) in these mice. […]
# Morphological appearance of the UVB irradiated skin was monitored visually and compared with the control mice skin. Skinfold thickness of the dorsal surface of the mice was recorded before, and everyday after UVB exposure for five days with a digital thickness gauge (Mitutoyo, So. Plainfield, N.J.) which measures thickness in 0-10 mm range with an accuracy of 0.015 mm. […]
# [4] = target: T1, insulin receptor kinase (IRK) (Homo sapiens, UniProt P06213); experiment: Insulin receptor kinase assay (from HepG2 cells); type: biochemical; conditions: b143: concentrations as high as 350 μM
# T1 construct: IRK immunoprecipitated from HepG2 hepatoma cells; endogenous in cells; host or cells: HepG2 human hepatoma cells, insulin-stimulated
# M24-MET melanoma cells = experiment: Apoptotic DNA fragmentation gel assay; type: cell-based; conditions: JAK3 negative cells, 1 or 3 μM, 24 hours
# [5] = test system: C57BL/6 responder splenocytes with BALB/c stimulators; experiment: Mixed lymphocyte reaction (WST-1); type: cell-based, mouse
# [6] = test system: NALM-6 human leukemia cells; experiment: Mitochondrial mass (NAO staining); type: cell-based; conditions: 25-200 μM, 24 h or 48 h
# SYK = target: T2, SYK (Homo sapiens, UniProt P43405); experiment: SYK immune complex kinase assay; type: biochemical; conditions: b143: concentrations as high as 350 μM
# T2 construct: made in house; host or cells: Sf21 insect cells (baculovirus)
# skh-1 mice [7] = experiment: UVB-induced vascular permeability (Evans blue); type: in vivo, mouse
# LYN = target: T3, LYN (Homo sapiens, UniProt P07948); experiment: LYN immune complex kinase assay (from NALM-6 cells); type: biochemical; conditions: b143: concentrations as high as 350 μM
# T3 construct: LYN was immunoprecipitated from whole cell lysates of NALM-6 human leukemia cells; endogenous in cells; host or cells: NALM-6 human B-lineage ALL cells
# BTK = target: T4, BTK (Homo sapiens, UniProt Q06187); experiment: BTK immune complex kinase assay; type: biochemical; conditions: b143: concentrations as high as 350 μM
# T4 construct: made in house; host or cells: Sf21 insect cells (baculovirus)
# C57BL/6 splenocytes [8] = experiment: PHA-induced splenocyte proliferation (WST-1); type: cell-based, mouse; conditions: 0.1, 1, 10 and 50 μg/ml, 3-day-culture
structure (smiles),measurement,setting,value
"COc1cc2ncnc(Nc3ccc(O)cc3)c2cc1OC [WHI-P131, 4-(4′-hydroxyl-phenyl)-amino-6,7-dimethoxyquinazoline]",apoptotic DNA fragmentation,[1],did not show any evidence of apoptotic DNA fragmentation
same,ConA-induced proliferation of splenocytes,C57BL/6 splenocytes [2],Dose-dependent suppression
same,islet allograft histology,C57BL/6 recipients,lymphocytic infiltration was present but without extensive destruction of islets
same,apoptotic DNA fragmentation in supernatants,NALM-6 leukemia cells,contained oligonucleosome-length DNA fragments with a “ladder-like” fragmentation pattern consistent with apoptosis
same,skin appearance,skh-1 mice [3]; day 5 post-UVB,resembled to that of control group mice
same,edema and neutrophil influx in UVB irradiated skin,"skh-1 mice [3]; histology, 48 h post-irradiation",prevented development of edema and neutrophil influx
same,effect on enzymatic activity of IRK,[4],did not affect the enzymatic activity
same,effect on enzymatic activity of IRK,[4]; listed as Compound 6,does not inhibit
same,apoptotic DNA fragmentation,M24-MET melanoma cells,did not show any evidence of apoptotic DNA fragmentation
same,MLR response,[5]; 0.1 μg/ml,statistically significant (p=0.0095) reduction of MLR response
same,MLR response,[5]; 1 μg/ml,complete abrogation of the response
same,MLR proliferation,"[5]; 0.1, 1, 10 and 50 μg/ml, 5-day-culture",Dose-dependent suppression
same,"mitochondrial mass, NAO staining intensity treated vs untreated",[6],virtually identical staining intensity
same,effect on enzymatic activity of SYK,SYK,did not affect the enzymatic activity
same,effect on enzymatic activity of SYK,SYK; listed as Compound 6,does not inhibit
same,effect on UVB induced skin vascular permeability,skh-1 mice [7]; 24 and 48 h post irradiation,minimal
same,vascular permeability,"skh-1 mice [7]; day 5 post-UVB, vehicle five fold increase",back to control level
same,effect on enzymatic activity of LYN,LYN,did not affect the enzymatic activity
same,effect on enzymatic activity of LYN,LYN; listed as Compound 6,does not inhibit
same,effect on enzymatic activity of BTK,BTK,did not affect the enzymatic activity
same,effect on enzymatic activity of BTK,BTK; listed as Compound 6,does not inhibit
same,PHA-induced proliferation of splenocytes,C57BL/6 splenocytes [8],Dose-dependent suppression
